Measurements taken from article PMC4763541, “Pitchfork and Gprasp2 Target Smoothened to the Primary Cilium for Hedgehog Pathway Activation” (PLoS ONE, 2016).
No constants are given. Whether binding was seen depends on the method and setting. Binding seen in cells or lysates may run through a third protein. These calls come from enrichment with a bait or labelling near it, and not all partners need be listed. Tags and fused reporters may be left off the sequences shown.

By UniProt entry, the sequences of proteins in these tests, tags left out. Residues count along the entry.
UniProt P63208: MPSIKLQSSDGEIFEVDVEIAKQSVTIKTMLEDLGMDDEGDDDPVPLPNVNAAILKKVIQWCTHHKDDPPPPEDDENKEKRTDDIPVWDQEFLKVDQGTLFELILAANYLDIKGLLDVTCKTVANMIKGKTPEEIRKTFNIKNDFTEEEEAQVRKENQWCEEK
UniProt Q99523, residues 78-831: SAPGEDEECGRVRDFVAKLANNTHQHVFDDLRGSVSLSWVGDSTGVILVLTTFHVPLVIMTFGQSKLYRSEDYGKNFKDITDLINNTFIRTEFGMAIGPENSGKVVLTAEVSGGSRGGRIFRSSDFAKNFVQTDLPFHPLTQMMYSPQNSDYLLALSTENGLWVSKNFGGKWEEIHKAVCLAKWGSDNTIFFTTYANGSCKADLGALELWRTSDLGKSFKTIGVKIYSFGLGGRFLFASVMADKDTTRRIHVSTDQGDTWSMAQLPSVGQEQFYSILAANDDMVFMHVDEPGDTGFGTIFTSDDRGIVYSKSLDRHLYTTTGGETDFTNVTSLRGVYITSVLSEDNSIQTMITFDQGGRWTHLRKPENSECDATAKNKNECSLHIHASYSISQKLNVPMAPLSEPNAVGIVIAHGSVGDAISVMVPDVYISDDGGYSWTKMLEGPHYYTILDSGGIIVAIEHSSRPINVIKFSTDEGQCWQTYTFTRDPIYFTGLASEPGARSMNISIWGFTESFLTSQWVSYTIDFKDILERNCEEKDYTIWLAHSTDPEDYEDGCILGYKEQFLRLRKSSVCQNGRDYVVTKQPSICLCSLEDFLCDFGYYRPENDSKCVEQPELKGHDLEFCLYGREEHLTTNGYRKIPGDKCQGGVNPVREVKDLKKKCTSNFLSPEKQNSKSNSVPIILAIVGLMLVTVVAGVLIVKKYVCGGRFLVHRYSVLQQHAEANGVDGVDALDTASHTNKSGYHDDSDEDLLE
UniProt P18085: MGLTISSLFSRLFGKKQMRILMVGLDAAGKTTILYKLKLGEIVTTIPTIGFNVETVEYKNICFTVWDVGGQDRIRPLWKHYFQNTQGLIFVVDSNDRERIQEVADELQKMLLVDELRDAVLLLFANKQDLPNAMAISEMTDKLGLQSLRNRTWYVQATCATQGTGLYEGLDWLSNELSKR

T1: Pitchfork (PIFO), SF-TAP-tagged (UniProt Q8TCI5)
T1 sequence: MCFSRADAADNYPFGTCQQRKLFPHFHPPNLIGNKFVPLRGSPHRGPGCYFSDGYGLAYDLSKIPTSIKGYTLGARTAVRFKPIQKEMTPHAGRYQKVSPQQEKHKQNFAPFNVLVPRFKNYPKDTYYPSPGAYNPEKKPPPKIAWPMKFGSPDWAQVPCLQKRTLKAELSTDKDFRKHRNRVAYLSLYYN

B1: endogenous GPRASP2 of HEK293T cells (G protein-coupled receptor trafficking protein) (protein, UniProt Q96D09 1-838)
chain: MTGAEIEPSAQAKPEKKAGEEVIAGPERENDVPLVVRPKVRTQATTGARPKTETKSVPAARPKTEAQAMSGARPKTEVQVMGGARPKTEAQGITGARPKTDARAVGGARSKTDAKAIPGARPKDEAQAWAQSEFGTEAVSQAEGVSQTNAVAWPLATAESGSVTKSKGLSMDRELVNVDAETFPGTQGQKGIQPWFGPGEETNMGSWCYSRPRAREEASNESGFWSADETSTASSFWTGEETSVRSWPREESNTRSRHRAKHQTNPRSRPRSKQEAYVDSWSGSEDEASNPFSFWVGENTNNLFRPRVREEANIRSKLRTNREDCFESESEDEFYKQSWVLPGEEANSRFRHRDKEDPNTALKLRAQKDVDSDRVKQEPRFEEEVIIGSWFWAEKEASLEGGASAICESEPGTEEGAIGGSAYWAEEKSSLGAVAREEAKPESEEEAIFGSWFWDRDEACFDLNPCPVYKVSDRFRDAAEELNASSRPQTWDEVTVEFKPGLFHGVGFRSTSPFGIPEEASEMLEAKPKNLELSPEGEEQESLLQPDQPSPEFTFQYDPSYRSVREIREHLRARESAESESWSCSCIQCELKIGSEEFEEFLLLMDKIRDPFIHEISKIAMGMRSASQFTRDFIRDSGVVSLIETLLNYPSSRVRTSFLENMIHMAPPYPNLNMIETFICQVCEETLAHSVDSLEQLTGIRMLRHLTMTIDYHTLIANYMSGFLSLLTTANARTKFHVLKMLLNLSENPAVAKKLFSAKALSIFVGLFNIEETNDNIQIVIKMFQNISNIIKSGKMSLIDDDFSLEPLISAFREFEELAKQLQAQIDNQNDPEVGQQS

Each molecule was assayed against T1, Pitchfork (PIFO), SF-TAP-tagged (assay: affinity purification with mass spectrometry; SILAC; SF-TAP-tagged PIFO against SF-TAP control in HEK293T; one-step Strep purification on Strep-Tactin-Superflow beads, lysis in 0.5% NP-40 in TBS (30 mM Tris-HCl pH 7.4, 150 mM NaCl), LC-MS/MS, significance B p<0.05).

binding, binds:
Skp1 (from UniProt P63208 1-163)
Sortilin1 (SORT1) (from UniProt Q99523 78-831)
small GTPase ADP-ribosylation factor 4 (ARF4) (from UniProt P18085 1-180)
B1
